According to PubChem BioAssay AID1439 (NMMLSC, 2008):
The campaign covered roughly 220,000 compounds. About 770 (0.35%) were called active. The shares of active, inactive and inconclusive entries below differ from those in the screen. Cut-off read from the data, not from the text of the source: active = binding response below about 49% or above about 150%; inconclusive = no clear call, values can overlap the other calls; inactive = in between.

Chains of the proteins cited; added tags and fusions are not shown.
UniProt P09471, whole entry, looked up: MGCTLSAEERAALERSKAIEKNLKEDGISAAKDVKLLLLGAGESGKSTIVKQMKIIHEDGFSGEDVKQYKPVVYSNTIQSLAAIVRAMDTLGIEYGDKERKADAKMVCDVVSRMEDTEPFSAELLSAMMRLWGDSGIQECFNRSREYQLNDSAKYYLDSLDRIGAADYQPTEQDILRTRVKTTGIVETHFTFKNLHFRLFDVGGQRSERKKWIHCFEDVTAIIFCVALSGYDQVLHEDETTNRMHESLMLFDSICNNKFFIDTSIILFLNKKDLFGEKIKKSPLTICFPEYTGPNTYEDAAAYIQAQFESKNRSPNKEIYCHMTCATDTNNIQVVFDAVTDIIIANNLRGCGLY

Each compound was assayed against Guanine nucleotide-binding protein G(o) subunit alpha (Homo sapiens) (UniProt P09471) (assay: RGS7-Galphao binding modulators, primary screen, biochemical, multiplexed bead flow cytometry (AID 1439;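 note: fluorescent Galphao held in activated GDP-AlF4 state binding bead-coupled RGS7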)). Conditions: at 10 µM, actives lie on both sides.

Structure (SMILES) | binding response (% of control)
CCCc1cc(=O)[nH]c(SCC(=O)Nc2ccc(Br)cc2)n1 | inconclusive: 103%
COCCN1Cc2cccc(C(=O)Nc3ccc(C)cc3)c2C1=O | inactive: 97.7%
CCN1CCc2nc3ccccc3c(C(=O)Nc3ccc(C#N)cc3)c2C1 | inconclusive: 109%
Clc1ccc(-c2nnc3n2-c2ccccc2SC3)cc1 | inconclusive: 333%
CC(=O)OC(C(=O)NCCN1CCOCC1)c1c(F)cccc1F (stereo not drawn) | inactive: 105%
CNC(=O)COC(=O)c1c2c(nc3ccccc13)CCC2 | inconclusive: 122%
Cc1ccc(CNC(=O)/C=C/c2ccc(S(=O)(=O)N3CCOCC3)cc2)cc1 | inactive: 100%
OC(CSc1ccc(F)cc1)CN1CCN(c2ccccc2)CC1 (stereo not drawn) | inactive: 101%
CCCCCCCc1c(C#N)c(N)[nH]c(=S)c1C#N | inconclusive: 56.4%
CC(C)NC(=O)NC(=O)COC(=O)c1cccc(OC(F)F)c1 | inconclusive: 82.7%
Cc1cc(OC(=O)c2c(F)cc(F)cc2F)nc(C)n1 | inconclusive: 98.8%
Cc1cccc(N(C(=O)CNC(=O)c2ccco2)C(C(=O)NCC2CCCO2)c2ccccc2)c1 (stereo not drawn) | inactive: 100%
O=C(Nc1nnc(-c2cccnc2)o1)c1ccccc1Cl | inconclusive: 109%
O=C(O)C(F)(F)C(NCc1ccccc1)c1ccccc1 (stereo not drawn) | inconclusive: 120%
O=S(=O)(Nc1ccc(Cl)cn1)c1cnc(Cl)c(Br)c1 | inconclusive: 113%
COc1cccc(CN(C(=O)Cn2nnc(-c3ccccc3F)n2)C(C(=O)NC(C)(C)C)c2ccncc2)c1 (stereo not drawn) | inactive: 104%
CCOC(=O)c1sc2nc(C)nc(N3CCN(c4ncccn4)CC3)c2c1C | inconclusive: 76.7%
CCN(CC)C(=O)C[n+]1cccc(/C=N/O)c1 | inactive: 97.1%
Cc1ccc(S(=O)(=O)N2CCC(C(=O)Nc3nnc(C45CC6CC(CC(C6)C4)C5)s3)CC2)cc1 | inactive: 98.1%
COc1ccc(C2/C=C\CN(C(=O)NC(C)C)CC(=O)N2Cc2ccc(F)cc2)cc1 (stereo not drawn) | inconclusive: 111%
O=C(Nc1ccccc1F)NC1CCCc2ccccc21 (stereo not drawn) | inconclusive: 113%
Cc1[nH]c(=O)[nH]c(=O)c1NC(=O)c1ccc(OC(C)C)cc1 | inactive: 98.8%

A second format for some results above.
Structure (SMILES)	binding response (% of control)
CCCc1cc(=O)[nH]c(SCC(=O)Nc2ccc(Br)cc2)n1	inconclusive: 103%
COCCN1Cc2cccc(C(=O)Nc3ccc(C)cc3)c2C1=O	inactive: 97.7%
CC(C)NC(=O)NC(=O)COC(=O)c1cccc(OC(F)F)c1	inconclusive: 82.7%
O=C(Nc1nnc(-c2cccnc2)o1)c1ccccc1Cl	inconclusive: 109%
Cc1ccc(S(=O)(=O)N2CCC(C(=O)Nc3nnc(C45CC6CC(CC(C6)C4)C5)s3)CC2)cc1	inactive: 98.1%
O=C(Nc1ccccc1F)NC1CCCc2ccccc21 (stereo not drawn)	inconclusive: 113%

More records:

Structure (SMILES) | binding response (% of control)
CC(=O)O/N=C/c1c(C)c(C=O)n2ccccc12 | inconclusive: 79.8%
Cc1ccc(-c2cc(C(=O)N3CCCc4ccccc43)no2)cc1 | inactive: 109%
COCCNC(=O)CCCn1c(=O)c2cc(OC)c(OC)cc2n(CC(=O)c2cccc(OC)c2)c1=O | inconclusive: 93.8%
Oc1ccc(/C=N/Nc2ccnc3cc(Cl)ccc23)cc1O | inconclusive: 5.41%
CC1OC(O[C@H]2CC[C@]3(C)C4C=C[C@]56OC[C@@]7(CC[C@@H](C)[C@H](C)C75)[C@H](O)C[C@@]6(C)[C@]4(C)CC[C@H]3C2(C)C)C(OC2OC(CO)C(O)C(O)C2OC2OCC(O)C(O)C2O)C(O)C1O (stereo partly drawn) | inconclusive: 142%
CCCOc1ccc(CNCCCOCC)cc1OC | inactive: 91.2%
Cn1nccc1NS(=O)(=O)c1ccc(C(C)(C)C)cc1 | inconclusive: 6.78%
COc1ccc(OCC(O)CNC(=O)c2cccs2)cc1 (stereo not drawn) | inconclusive: 91.9%
O=S(=O)(O)c1ccc(N=Nc2ccccc2)cc1 | inconclusive: 55.7%
COc1ccc(N=C2S/C(=C\c3ccc(OCC(=O)O)cc3)C(=O)N2CCc2c[nH]c3ccccc23)cc1 | inactive: 95.7%
O=C(NC12CC3CC(CC(C3)C1)C2)C12CC3CC(C1)CC(n1cnc(Cl)n1)(C3)C2 | inactive: 100%
COc1ccc(NC(=O)c2cc3c(-c4ccc(OC)c(OC)c4)nn(C)c3s2)cc1OC | inactive: 104%
COc1ccc(-c2cc(-c3n[nH]c(=S)n3-c3ccccc3OC)[nH]n2)cc1 | inactive: 104%
S=C(NC1CCCCC1)N1CCOCCOCCN(C(=S)NC2CCCCC2)CCOCC1 | inconclusive: 88.9%
COc1ccc(/C=N/NC(=O)c2cccnc2)cc1CSc1ccccn1 | inconclusive: 108%
CC(C)(C)CN1CCNC(=O)C1CC(=O)NC1Cc2ccccc2C1 (stereo not drawn) | inactive: 85.9%
CCCC(=O)Nc1cc(C(=O)O)ccc1Sc1ccccc1 | inactive: 107%
Cc1ccc(NC(=S)N2CCOCC2)c(C)c1 | inactive: 110%
COc1ccc(N=Nc2ccc(O)c(P(=O)(c3ccccc3)c3ccccc3)c2)cc1 | inconclusive: -152%
N#Cc1ccc(C(=O)NC2CCCc3ccccc32)cc1 (stereo not drawn) | inconclusive: 251%
O=C(Nc1ccc(S(=O)(=O)Nc2nccs2)cc1)c1cc(-c2ccccn2)nc2ccccc12 | inconclusive: 103%
COc1ccc(CNC(=O)C2=CCN(S(=O)(=O)c3ccc(C)cc3)CC2)cc1 | inconclusive: 86.4%

Structure (SMILES) | binding response (% of control)
CC(C)c1nc2oc3c(=O)[nH]cnc3c2c2c1COC(C)(C)C2 | inconclusive: 111%
CSc1sc(C(=O)NC(=O)NCc2cccnc2)c(C)c1-c1ccon1 | inconclusive: 50.2%
Cc1c(NC(=S)NC(=O)c2sc3ccccc3c2Cl)cccc1C(=O)O | inconclusive: 115%
O=C(NCc1ccccc1)C1CCN(S(=O)(=O)N2CCOCC2)CC1 | inactive: 99.7%
CCCN(C(=O)Cc1nc(N)n[nH]1)C1(C(=O)Nc2c(C)cccc2C)CCCCC1 | inactive: 99.1%
COC(=O)CCCCC1SCC(NC(=O)c2ccccc2)C1=O (stereo not drawn) | inactive: 93.8%
CSCCC1NC(=O)N(CC(=O)Nc2c(C(C)C)cccc2C(C)C)C1=O (stereo not drawn) | inconclusive: 89.2%
Cc1nc2ccccc2nc1N1CCCC1 | inconclusive: 76.7%
Cc1cc(C(=O)CSc2nc(N)cc(=O)[nH]2)c(C)n1-c1ccc(OC(F)F)cc1 | inconclusive: 133%
N=C(N)SCC1=CCS(=O)(=O)C1 | inconclusive: 154%
CCOC(=O)/C=C1\SCC(=O)N1CC(=O)Nc1ccc(OC)c(OC)c1 | inactive: 94.9%
Cc1cccc(/C=N/NC(=O)NC23CC4CC(CC(C4)C2)C3)n1 | inconclusive: 102%
Cc1nc2cc(NC(=O)c3ccc(N4C(=O)CCC4=O)cc3)ccc2s1 | inactive: 110%
C[C@]12CC(O)C3C(CCC4=CC(=O)CC[C@@]43C)C1CCC2c1csc(-c2ccccc2)n1 (stereo partly drawn) | inconclusive: 93.4%
O=C(CC12CC3CC(CC(C3)C1)C2)NC(Cc1ccccc1)C(=O)O (stereo not drawn) | inconclusive: 111%
O=C(CSc1ncnc2[nH]ncc12)Nc1nc(-c2ccc(F)c(F)c2)cs1 | inconclusive: 97.5%
O=C(Nc1ccccc1-c1nnn(CC(=O)N2CCOCC2)n1)c1ccccc1F | inactive: 104%
Cn1c(CSCc2ccc(Cl)cc2)nnc1SCC(=O)Nc1nccs1 | inactive: 103%
CN1CCN(c2ccc(CNS(=O)(=O)c3ccccc3)cc2)CC1 | inconclusive: 16.2%
Cc1ccc(C2=C(CC(=O)O)C(=O)CC2)cc1 | inactive: 91.4%
O=C(N/N=C/C=C\c1ccccc1[N+](=O)[O-])c1ccco1 | inconclusive: 99.8%
O=C(Oc1c(-c2ccccc2)c(=O)n2c3c(cccc13)CC2)c1ccc(Cl)cc1 | inconclusive: 52%

Structure (SMILES) | binding response (% of control)
COCc1cc(C(C)=O)ccc1OCC(=O)Nc1ccc(NC(C)=O)cc1 | inactive: 92.3%
C=CCSc1nc(O)c(C2OC(=O)c3c2ccc(OC)c3OC)c(=O)n1-c1ccccc1 (stereo not drawn) | inconclusive: 108%
CC(C)Cn1c(SCC(=O)N2CCc3ccccc3C2)nc2cc(Cl)ccc2c1=O | inactive: 101%
COc1ccc(NC(=O)CC(c2ccccc2)c2ccco2)cc1 (stereo not drawn) | inconclusive: 93.5%
COC(=O)C1=C(N)OC2=C(C(=O)CCC2)C1c1ccccc1OC (stereo not drawn) | inconclusive: 132%
O=C(NCc1ccc(F)cc1)c1ccc(CS(=O)(=O)c2ccc(Br)cc2)o1 | inconclusive: 110%
CC(C)CCNC(=O)NC(=O)COC(=O)C1=COCCO1 | active: 17.2%
O=C(O[C@@H]1Cc2c(O)cc(O)cc2O[C@@H]1c1cc(O)c(O)c(O)c1)c1cc(O)c(O)c(O)c1 | active: 31.7%
O=C(c1cc(COc2ccc3ncccc3c2)on1)N1CCCCCC1 | inconclusive: 101%
Cc1c(NS(=O)(=O)c2ccc(C(=O)NCc3ccccc3)cc2)c(=O)n(-c2ccccc2)n1C | inconclusive: 102%
C=C(C)c1cccc(C(C)(C)NC(=O)Nc2nncs2)c1 | inconclusive: 143%
Cc1ccccc1N1CCN(Cc2cccc(C(=O)O)c2)CC1 | inactive: 97.8%
CC(=O)Nc1ccc(N=C(C2=C(O)c3ccccc3C2=O)c2ccccc2)cc1 | inconclusive: 105%
COc1cc(C(=O)OC(C)CN2CCOCC2)cc(OC)c1OC (stereo not drawn) | inconclusive: 108%
Cc1ccc(NC(=O)COC(=O)Cn2cnc3ccccc32)c([N+](=O)[O-])c1 | inconclusive: 93.9%
O=C(CCCN1C(=O)/C(=C/c2ccccc2Cl)SC1=S)NNC(=O)c1ccncc1 | inconclusive: 95.1%
CC12COC3(P(=O)(c4ccccc4)c4ccccc4)CC1CCC23CP(=O)(c1ccccc1)c1ccccc1 (stereo not drawn) | inconclusive: 94.3%
CC(C)(C)NC(=O)NC(=O)COC(=O)Cc1coc2ccc3ccccc3c12 | inactive: 107%
CCN(CC)S(=O)(=O)c1cccc(C(=O)N/N=C(\C)c2cccs2)c1 | inconclusive: 105%
O=c1[nH]c(NNC(=S)NC2CCCCC2)nc2c1C1(CCCC1)Cc1ccccc1-2 | inconclusive: 90.6%
CCCc1n[nH]c2c1/C(=N\OCC)CC(C)(C)C2 | inconclusive: 136%
CC(C)NC(=O)c1ccccc1NC(=O)Cc1ccc(Br)cc1 | inconclusive: 92.1%
